Laboratory results as given in the supplement of paper PMC12542422.
Where a name gives a salt, the structure may show the parent alone. ± gives the standard deviation of the averaged measurements. Some of the results follow. These are raw signals, not scaled to a control.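 HeLa cells imaged for ribosome-assembly readouts (ENP1 staining with or without export block, or inducible tagged ribosomal protein reporters); machine learning classified each cell's signal location against solvent (DMSO) controls. Hits exceeded the DMSO false-positive mean by five standard deviations, then were visually confirmed; three biological replicates.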

These compounds were tested on HeLa K (ENP1 immunofluorescence, no LMB) (assay: fraction of cells with nucleolar or nucleolar/nucleoplasmic ENP1 signal (MainHitrate); higher = more cells with nucleolar/nuclear readout signal (for ENP1 -LMB: less RNAPI inhibition; for +LMB ENP1 and RP reporters: stronger nuclear/nucleolar retention, i.e. ribosome biogenesis defect)). Details: concentration: 1 µM; treatment time: 6 h; ENP1 -LMB; leptomycin B: none.

SMILES	fraction
CN1CCc2cccc3c2[C@H]1Cc1ccc(O)c(O)c1-3 [R-(-)-Apomorphine HCl Hemihydrate]	0.994 ± 0.011
c1ccc(C2CN3CCSC3=N2)cc1 (stereo not given) [Tetramisole HCl]	0.984 ± 0.029
CCC[C@@H]1C[C@@H](C(=O)N[C@@H]([C@H]2O[C@H](SC)[C@H](O)[C@@H](O)[C@H]2O)[C@H](C)Cl)N(C)C1 [Clindamycin]	0.988 ± 0.02
N[C@@H](Cc1cc(I)c(Oc2cc(I)c(O)c(I)c2)c(I)c1)C(=O)O [L-Thyroxine]	0.986 ± 0.023
COc1c2ccoc2cc2oc(=O)ccc12 [Bergapten]	0.989 ± 0.019
O=NO [Sodium nitrite]	0.987 ± 0.023

Each compound was assayed on HeLa RPS2-YFP reporter (assay: fraction of reporter-positive cells with nuclear (nucleolar or nucleolar/nucleoplasmic) RPS2-YFP (MainHitrate); higher = more cells with nucleolar/nuclear readout signal (for ENP1 -LMB: less RNAPI inhibition; for +LMB ENP1 and RP reporters: stronger nuclear/nucleolar retention, i.e. ribosome biogenesis defect)). Details: concentration: 1 µM; treatment time: 6 h.

SMILES	fraction of reporter-positive cells with nuclear
Cc1nccn1CC1CCc2c(c3ccccc3n2C)C1=O (stereo not given) [Ondansetron (Zofran)]	0.11 ± 0.06
CCCNC(C)C(=O)Nc1c(C)csc1C(=O)OC (stereo not given) [Articaine HCl]	0.123 ± 0.11
CC(C)C[C@H](NC(=O)[C@H](CCc1ccccc1)NC(=O)CN1CCOCC1)C(=O)N[C@@H](Cc1ccccc1)C(=O)N[C@@H](CC(C)C)C(=O)[C@@]1(C)CO1 [Carfilzomib (PR-171)]	0.584 ± 0.48
O=C(O)Cc1cc(I)c(Oc2ccc(O)c(I)c2)c(I)c1 [Tiratricol]	0.116 ± 0.098
CCC(=O)O[C@]1(C(=O)CCl)[C@@H](C)C[C@H]2[C@@H]3CCC4=CC(=O)C=C[C@]4(C)[C@@]3(F)[C@@H](O)C[C@@]21C [Clobetasol propionate]	0.0962 ± 0.089
CC[C@@H]1C(=O)OC[C@@H]1Cc1cncn1C [Pilocarpine HCl]	0.148 ± 0.12
CC(=O)O[C@]1(C(C)=O)CC[C@H]2[C@@H]3C[C@H](C)C4=CC(=O)C=C[C@]4(C)[C@@]3(F)[C@@H](O)C[C@@]21C [Fluorometholone Acetate]	0.156 ± 0.15
c1ccc2[nH]c(-c3cscn3)nc2c1 [Thiabendazole]	0.083 ± 0.021
CN(C)CCC[C@@]1(c2ccc(F)cc2)OCc2cc(C#N)ccc21 [Escitalopram oxalate]	0.133 ± 0.12
O=C(NC(Cc1cc(=O)[nH]c2ccccc12)C(=O)O)c1ccc(Cl)cc1 (stereo not given) [Rebamipide]	0.117 ± 0.09
Cc1cccc(N(C)C(=S)Oc2ccc3ccccc3c2)c1 [Tolnaftate]	0.149 ± 0.1
CCCC(CCC)C(=O)O [Divalproex sodium]	0.109 ± 0.071
CCOC(=O)c1ccc(C#Cc2ccc3c(c2)C(C)(C)CCS3)nc1 [Tazarotene (Avage)]	0.103 ± 0.078
CC(C)CC(N)=O [Isovaleramide]	0.127 ± 0.1
O=c1n(CCCN2CCN(c3cccc(Cl)c3)CC2)nc2ccccn12 [Trazodone hydrochloride (Desyrel)]	0.0916 ± 0.097
Clc1ccc(C(Cn2ccnc2)OCc2c(Cl)cccc2Cl)c(Cl)c1 (stereo not given) [Isoconazole nitrate (Travogen)]	0.118 ± 0.083
C=CCNC(N)=S [Allylthiourea]	0.131 ± 0.11
OC[C@H]1O[C@H](O[C@]2(CCl)O[C@H](CCl)[C@@H](O)[C@@H]2O)[C@H](O)[C@@H](O)[C@H]1Cl [Sucralose]	0.12 ± 0.1
CCC(=O)O[C@]1(C(=O)SCF)[C@H](C)C[C@H]2[C@@H]3C[C@H](F)C4=CC(=O)C=C[C@]4(C)[C@@]3(F)[C@@H](O)C[C@@]21C [Fluticasone propionate (Flonase, Veramyst)]	0.149 ± 0.11
Nc1ncnc2c1ncn2[C@@H]1O[C@H](CO)[C@@H](O)[C@H]1O [Adenosine (Adenocard)]	0.11 ± 0.058

2 of these compounds in another layout:
O=c1n(CCCN2CCN(c3cccc(Cl)c3)CC2)nc2ccccn12 [Trazodone hydrochloride (Desyrel)]
  fraction of reporter-positive cells with nuclear: 0.0916 ± 0.097
C=CCNC(N)=S [Allylthiourea]
  fraction of reporter-positive cells with nuclear: 0.131 ± 0.11

Later entries.

SMILES	fraction of reporter-positive cells with nuclear
CCCN(CCC)CCc1cccc2c1CC(=O)N2 [Ropinirole HCl]	0.134 ± 0.11
O=C(O)CCCC[C@@H]1SC[C@@H]2NC(=O)N[C@@H]21 [Biotin (Vitamin B7)]	0.096 ± 0.078
CN1CCCCC1CCN1c2ccccc2Sc2ccc([S+](C)[O-])cc21 (stereo not given) [Mesoridazine Besylate]	0.177 ± 0.14
CC1(C)S[C@@H]2[C@H](NC(=O)Cc3ccccc3)C(=O)N2[C@H]1C(=O)O [Benzylpenicillin sodium]	0.0936 ± 0.07
CCOC(CN1CCN(CC(C)C(=O)c2ccccc2)CC1)c1ccccc1 (stereo not given) [Eprazinone 2HCl]	0.119 ± 0.099
Cc1cc(C(C)(C)C)c(O)c(C)c1CC1=NCCN1 [Oxymetazoline hydrochloride]	0.111 ± 0.081
CO[C@H]1C(=O)[C@]2(C)[C@@H](OC)C[C@H]3OC[C@@]3(OC(C)=O)[C@H]2[C@H](OC(=O)c2ccccc2)[C@]2(O)C[C@H](OC(=O)[C@H](O)[C@@H](NC(=O)OC(C)(C)C)c3ccccc3)C(C)=C1C2(C)C [Cabazitaxel (Jevtana)]	0.214 ± 0.16
Nc1nc(Cl)nc2c1ncn2[C@H]1C[C@H](O)[C@@H](CO)O1 [Cladribine]	0.0781 ± 0.03
COc1cc(C(=O)NC2CCCNC2)cc(OC)c1OC (stereo not given) [Troxipide]	0.145 ± 0.1
CNC(=C[N+](=O)[O-])NCCSCc1csc(CN(C)C)n1 [Nizatidine]	0.123 ± 0.07
CC(=O)Oc1cc2c(s1)CCN(C(C(=O)C1CC1)c1ccccc1F)C2 (stereo not given) [Prasugrel (Effient)]	0.131 ± 0.085
CC1=NN(c2ccccc2)C(=O)C1 [Edaravone (MCI-186)]	0.091 ± 0.046
[O-][n+]1cccc(CO)c1 [Mepiroxol]	0.172 ± 0.16
CN1CCc2cccc3c2[C@H]1Cc1ccc(O)c(O)c1-3 [R-(-)-Apomorphine HCl Hemihydrate]	0.201 ± 0.17
c1ccc(C2CN3CCSC3=N2)cc1 (stereo not given) [Tetramisole HCl]	0.122 ± 0.097
CCC[C@@H]1C[C@@H](C(=O)N[C@@H]([C@H]2O[C@H](SC)[C@H](O)[C@@H](O)[C@H]2O)[C@H](C)Cl)N(C)C1 [Clindamycin]	0.116 ± 0.11
N[C@@H](Cc1cc(I)c(Oc2cc(I)c(O)c(I)c2)c(I)c1)C(=O)O [L-Thyroxine]	0.0954 ± 0.053
COc1c2ccoc2cc2oc(=O)ccc12 [Bergapten]	0.148 ± 0.12
O=NO [Sodium nitrite]	0.124 ± 0.12
